Measurements reported in PubChem BioAssay AID686938 (Drosophila RNAi Screening Center, 2013)
Assay: 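Fly genes required for calcium entry once internal stores are emptied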 (primary screen). Cells: Drosophila S2R+ cells. Reagent: long dsRNA against Drosophila genes, about 0.25 µg dsRNA per well, roughly 10,000 cells. Duration: 5 days of knock-down before the calcium assay. Treatment: thapsigargin (SERCA pump blocker) to empty calcium stores; entry signal taken 4 min after adding it. Measured: 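Duplicate raw fluo-4 intensities per well from a plate reader, at rest and four minutes after thapsigargin emptied calcium stores; entry-to-rest ratio filled for only some wells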. Reading the numbers: calcium entry signal: higher = stronger calcium signal after store depletion; entry to resting ratio: higher = more calcium entry relative to resting level; resting calcium signal: higher = higher resting calcium signal. Rule for the call: 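Hit if the duplicate-averaged plate z-score for entry over resting signal is under −3; wells with weak total dye signal (Fmax z < −2) or more than 5 off-targets removed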. Calls: active = strongly reduced calcium entry; inactive = no strong reduction.
The deposit covers about 23,000 reagents; this is a random part of those that have a named target and a result. In the full data, 75 (0.33%) are marked active. 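Raw plate signals without normalisation; calls rest on plate z-scores that were not deposited; ratio present for only 364 wells.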 A number with no mark means an inactive call. Not given: the dose of the treatment.

gene,DRSC id,"calcium entry signal, replicate 1 (fluorescence units)","calcium entry signal, replicate 2 (fluorescence units)",entry to resting ratio,"resting calcium signal, replicate 1 (fluorescence units)","resting calcium signal, replicate 2 (fluorescence units)"
CG6729,DRSC02984,4.25e7,3.51e7,,1.84e7,1.55e7
CG6729,DRSC22793,3.69e7,3.68e7,,1.86e7,1.82e7
shi,DRSC20373,4.24e7,4.60e7,,2.05e7,2.20e7
CG8067,DRSC07065,3.64e7,3.99e7,,1.57e7,1.92e7
OS9,DRSC02700,3.97e7,4.19e7,,1.98e7,1.85e7
Sdhaf3,DRSC15020,3.12e7,5.19e7,,1.69e7,6.12e7
alpha-Spec,DRSC08704,3.71e7,3.47e7,,1.73e7,1.79e7
CG7509,DRSC08596,4.95e7,3.64e7,,3.25e7,1.57e7
Cyp4ac3,DRSC03304,4.95e7,,,2.00e7,
Prim1,DRSC11137,2.29e7,2.99e7,,1.23e7,1.70e7
LysX,DRSC08678,3.18e7,3.13e7,,1.42e7,1.49e7
Mink,DRSC14291,4.42e7,4.52e7,,2.03e7,1.97e7
krz,DRSC16979,3.00e7,4.84e7,2.2,1.40e7,1.81e7
CG6171,DRSC15982,4.07e7,5.06e7,,1.64e7,2.20e7
kat80,DRSC20344,4.05e7,2.01e7,,1.98e7,1.01e7
kat80,DRSC20345,4.38e7,2.45e7,,2.18e7,1.17e7
mRpS34,DRSC09918,3.85e7,5.28e7,,1.67e7,2.21e7
Obp19b,DRSC20536,4.67e7,5.04e7,,2.27e7,1.87e7
CG9184,DRSC08636,3.82e7,5.37e7,,1.86e7,2.26e7
CG9184,DRSC22184,3.81e7,4.15e7,,1.72e7,2.44e7
mthl9,DRSC08506,3.94e7,4.59e7,,1.86e7,2.01e7
Muc96D,DRSC13709,2.64e7,5.16e7,,1.36e7,2.56e7
Muc96D,DRSC21609,2.69e7,4.17e7,,1.42e7,1.77e7
Muc96D,DRSC23213,3.74e7,4.81e7,,1.86e7,2.25e7

Part of the list above, set out differently.
{"gene": "mthl9", "DRSC id": "DRSC08506", "calcium entry signal, replicate 1 (fluorescence units)": 3.94e7, "calcium entry signal, replicate 2 (fluorescence units)": 4.59e7, "resting calcium signal, replicate 1 (fluorescence units)": 1.86e7, "resting calcium signal, replicate 2 (fluorescence units)": 2.01e7}
{"gene": "Muc96D", "DRSC id": "DRSC13709", "calcium entry signal, replicate 1 (fluorescence units)": 2.64e7, "calcium entry signal, replicate 2 (fluorescence units)": 5.16e7, "resting calcium signal, replicate 1 (fluorescence units)": 1.36e7, "resting calcium signal, replicate 2 (fluorescence units)": 2.56e7}
